Laboratory results: PubChem BioAssay AID743454 (Peter MacCallum Cancer Centre, 2014)

Screen: 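Genes whose loss kills vorinostat-resistant colon cancer cells under vorinostat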 (primary screen)
Cell system: human HCT116-VR colon cancer cells, selected for vorinostat resistance
Knock-down reagent: siRNA pool against human genes, 40 nM siRNA pool
Timing: vorinostat for 24 h, read-out about 72 h after transfection
Conditions: vorinostat at 2.5 µM final
Detection: 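Two measures, CellTiter-Fluor viability and luminescent caspase 3/7 activity, each as fold change against same-plate mock wells, mean of duplicates, then screen-wide robust z-score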
Scale: viability robust z-score: higher = more viable cells than screen typical; caspase robust z-score: higher = more caspase 3/7 activity than screen typical
Call rule: 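a knock-down is a hit when classed RV1 or RV2 for lowered viability, or CA1 or CA2 for caspase activation; those lethal without drug were dropped; hits were retested singly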
In all, the deposit lists about 18,000 reagents; below is a random part of them. 450 of all reagents (2.5%) were called active. 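Single biological run; no consistent viability z cut-off exists, so the class columns, not z-scores, define the calls.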

Gene	viability hit class	caspase hit class	viability robust z-score	caspase robust z-score	Outcome
CXCL13 (C-X-C motif chemokine ligand 13)	no change	no change	1.1	-0.79	inactive
MRPL22 (mitochondrial ribosomal protein L22)	no change	no change	-0.84	1.08	inactive
SAYSD1 (SAYSVFN motif domain containing 1)	no change	no change	-0.83	2.11	inactive
TMEM74B (transmembrane protein 74B)	no change	no change	1.52	-0.3	inactive
CAPZB (capping actin protein of muscle Z-line subunit beta)	no change	no change	-0.96	3.38	inactive
PITHD1 (PITH domain containing 1)	no change	no change	-0.56	0	inactive
ASPRV1 (aspartic peptidase retroviral like 1)	no change	no change	1.45	0.92	inactive
NAP1L3 (nucleosome assembly protein 1 like 3)	no change	no change	0.49	-0.4	inactive

A few values from the list:
Value of MRPL22 (mitochondrial ribosomal protein L22) under “viability robust z-score”: -0.84
CAPZB (capping actin protein of muscle Z-line subunit beta), Outcome: inactive
For “viability hit class”, ASPRV1 (aspartic peptidase retroviral like 1) has no change

Next entries:
Gene	viability hit class	caspase hit class	viability robust z-score	caspase robust z-score	Outcome
CDK8 (cyclin dependent kinase 8)	no change	no change	-0.2	-1.09	inactive
KCNJ11 (potassium inwardly rectifying channel subfamily J member 11)	no change	no change	-0.26	0.5	inactive
BBS1 (Bardet-Biedl syndrome 1)	no change	no change	0.36	-0.34	inactive
PDE6H (phosphodiesterase 6H)	no change	no change	0.05	-0.86	inactive
KRTAP21-2 (keratin associated protein 21-2)	no change	no change	-0.2	-1.01	inactive
MTA1 (metastasis associated 1)	no change	no change	-0.38	-0.56	inactive
APBB1IP	no change	no change	-1.08	-0.31	inactive
COL1A2 (collagen type I alpha 2 chain)	no change	no change	0.2	0.57	inactive
TOR1A (torsin family 1 member A)	no change	no change	-1.29	1.14	inactive
FCN3 (ficolin 3)	no change	no change	0.86	1.25	inactive
GRM3 (glutamate metabotropic receptor 3)	no change	no change	1.16	-0.66	inactive
ZRANB1 (zinc finger RANBP2-type containing 1)	no change	no change	0.12	-1.25	inactive
PPFIA3 (PPFI scaffold protein A3)	no change	no change	1.16	0.31	inactive
SGSM1 (small G protein signaling modulator 1)	no change	no change	0.34	-0.62	inactive
CRISP1 (cysteine rich secretory protein 1)	no change	no change	0.48	-0.3	inactive
